# Literature values, collected in patent publication US5744469A, “Method for treating dermatitis” (Eli Lilly and Company, priority 1996, dated 1998).
# Tested on: 5-HT1C receptor
# Settings: in vitro; cited from earlier work
compound,measurement,value
"Cc1cc2c(s1)Nc1ccccc1N=C2N1CCN(C)CC1 [2-methyl-4-(4-methyl-1-piperazinyl)-10H-thieno[2,3-b][1,5]benzodiazepine]",activity at the 5-HT1C receptor,active
